Paper PMC10238197, “Deafness‐Associated ADGRV1 Mutation Impairs USH2A Stability through Improper Phosphorylation of WHRN and WDSUB1 Recruitment” (Advanced Science, 2023)
Changes are numbered by the printed parent chain. Read-outs that look alike come from different tables or passages of the source. No constants are given. Whether binding was seen depends on the method and setting. For some of these results: In cells and extracts the contact can be indirect. Some entries that bind do so weakly or less than the wild type. For some of these results: Sequences can lack the tags named with a protein.

Protein sequences, listed by entry. Tags and fused reporters are not part of them. Residues count along the entry.
UniProt Q8VHN7, residues 4333-6298: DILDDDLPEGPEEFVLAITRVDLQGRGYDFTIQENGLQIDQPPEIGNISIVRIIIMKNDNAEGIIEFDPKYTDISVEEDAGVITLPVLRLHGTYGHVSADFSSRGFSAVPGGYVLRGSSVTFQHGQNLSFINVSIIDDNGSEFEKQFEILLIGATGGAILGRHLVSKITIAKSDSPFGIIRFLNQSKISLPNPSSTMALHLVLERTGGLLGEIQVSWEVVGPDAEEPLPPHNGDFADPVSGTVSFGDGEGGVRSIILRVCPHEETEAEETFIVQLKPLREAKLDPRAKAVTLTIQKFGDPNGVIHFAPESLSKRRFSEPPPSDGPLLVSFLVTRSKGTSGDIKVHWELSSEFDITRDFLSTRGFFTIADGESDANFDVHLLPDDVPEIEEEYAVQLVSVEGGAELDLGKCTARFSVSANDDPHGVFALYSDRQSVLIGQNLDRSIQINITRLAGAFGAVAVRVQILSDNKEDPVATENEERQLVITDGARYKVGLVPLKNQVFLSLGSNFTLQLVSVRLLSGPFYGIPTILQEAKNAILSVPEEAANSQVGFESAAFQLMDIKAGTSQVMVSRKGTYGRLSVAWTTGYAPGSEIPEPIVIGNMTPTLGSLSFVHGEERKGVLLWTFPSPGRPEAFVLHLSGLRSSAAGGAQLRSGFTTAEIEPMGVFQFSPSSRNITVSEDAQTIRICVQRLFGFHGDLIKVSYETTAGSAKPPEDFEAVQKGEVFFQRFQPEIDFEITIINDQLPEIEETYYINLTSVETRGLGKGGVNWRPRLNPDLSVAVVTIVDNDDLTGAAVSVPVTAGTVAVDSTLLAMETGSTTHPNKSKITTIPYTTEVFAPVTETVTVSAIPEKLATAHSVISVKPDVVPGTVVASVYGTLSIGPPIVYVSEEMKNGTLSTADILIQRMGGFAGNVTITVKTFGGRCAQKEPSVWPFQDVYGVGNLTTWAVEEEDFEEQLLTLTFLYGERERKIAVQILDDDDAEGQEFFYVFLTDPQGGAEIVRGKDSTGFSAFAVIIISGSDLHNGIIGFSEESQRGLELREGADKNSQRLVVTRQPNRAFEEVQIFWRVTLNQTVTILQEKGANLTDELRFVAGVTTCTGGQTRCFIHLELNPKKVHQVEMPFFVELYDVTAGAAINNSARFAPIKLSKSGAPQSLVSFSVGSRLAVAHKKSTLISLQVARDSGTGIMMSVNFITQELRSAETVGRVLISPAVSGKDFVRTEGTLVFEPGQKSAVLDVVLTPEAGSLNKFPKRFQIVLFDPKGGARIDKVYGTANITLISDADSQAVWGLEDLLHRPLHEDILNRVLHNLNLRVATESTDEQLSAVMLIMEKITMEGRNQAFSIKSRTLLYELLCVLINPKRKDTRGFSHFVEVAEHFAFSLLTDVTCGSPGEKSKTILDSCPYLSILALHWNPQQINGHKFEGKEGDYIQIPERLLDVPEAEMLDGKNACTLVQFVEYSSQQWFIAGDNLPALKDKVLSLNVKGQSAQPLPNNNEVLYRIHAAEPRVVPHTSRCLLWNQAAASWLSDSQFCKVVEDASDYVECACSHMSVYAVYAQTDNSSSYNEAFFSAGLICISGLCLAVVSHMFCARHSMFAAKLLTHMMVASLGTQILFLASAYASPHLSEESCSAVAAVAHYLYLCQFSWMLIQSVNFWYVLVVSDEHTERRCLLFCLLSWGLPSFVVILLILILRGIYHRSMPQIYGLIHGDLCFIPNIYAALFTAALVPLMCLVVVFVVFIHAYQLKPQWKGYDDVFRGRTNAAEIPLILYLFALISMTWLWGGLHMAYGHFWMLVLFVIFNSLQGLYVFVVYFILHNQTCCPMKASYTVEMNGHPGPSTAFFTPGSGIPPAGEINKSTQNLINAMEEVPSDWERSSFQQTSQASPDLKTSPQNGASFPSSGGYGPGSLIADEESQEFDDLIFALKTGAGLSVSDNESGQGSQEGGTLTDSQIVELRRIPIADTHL

Legend:
[1] = target: T1, WHRN, wild type, of the PDZ-truncation co-IP (Figure 6b,c) (mouse) (UniProt Q80VW5); assay: co-IP; cotransfected HEK293 cells, starved 12 h, lysed in 50 mM Tris-HCl pH 7.4, 150 mM NaCl, 1% Triton, 1% NP-40, 2 mM EDTA; anti-Flag M2 or anti-Myc antibody-conjugated agarose, 4 °C overnight; blots against the tags
T1 sequence: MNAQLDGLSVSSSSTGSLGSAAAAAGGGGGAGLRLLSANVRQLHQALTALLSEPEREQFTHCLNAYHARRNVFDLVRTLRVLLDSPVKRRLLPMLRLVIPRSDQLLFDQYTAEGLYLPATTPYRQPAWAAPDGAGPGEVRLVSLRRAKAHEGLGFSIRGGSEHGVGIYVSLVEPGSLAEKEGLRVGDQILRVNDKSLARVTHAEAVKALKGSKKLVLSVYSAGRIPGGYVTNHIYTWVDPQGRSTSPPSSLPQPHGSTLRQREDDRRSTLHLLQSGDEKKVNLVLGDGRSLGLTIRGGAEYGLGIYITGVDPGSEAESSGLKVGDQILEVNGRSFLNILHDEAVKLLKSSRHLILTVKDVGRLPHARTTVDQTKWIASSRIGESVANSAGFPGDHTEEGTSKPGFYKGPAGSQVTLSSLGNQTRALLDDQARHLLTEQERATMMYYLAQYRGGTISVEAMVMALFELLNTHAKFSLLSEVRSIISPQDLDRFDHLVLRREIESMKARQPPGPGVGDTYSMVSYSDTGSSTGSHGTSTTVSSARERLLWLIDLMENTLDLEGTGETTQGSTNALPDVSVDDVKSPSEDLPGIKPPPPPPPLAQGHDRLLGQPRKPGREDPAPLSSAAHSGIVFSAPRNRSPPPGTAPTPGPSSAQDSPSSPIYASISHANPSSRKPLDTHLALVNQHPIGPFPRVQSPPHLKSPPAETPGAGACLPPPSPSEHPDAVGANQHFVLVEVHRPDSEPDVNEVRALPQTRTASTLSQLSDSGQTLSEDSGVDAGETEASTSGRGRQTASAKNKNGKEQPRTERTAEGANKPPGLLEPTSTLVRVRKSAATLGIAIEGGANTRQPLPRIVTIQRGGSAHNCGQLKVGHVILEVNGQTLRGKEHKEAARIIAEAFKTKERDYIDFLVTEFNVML

[2] = target: T2, WHRN-Nluc Z1-L (mouse) (UniProt Q80VW5); assay: FRET or BRET; intermolecular FlAsH-BRET saturation in HEK293 cells: fixed amount of WHRN-Nluc, increasing ADGRV1-FlAsH or USH2A-FlAsH; 2.5 µM FlAsH-EDT2, 5 µM coelenterazine-h; net BRET Em530/Em485
T2 sequence: T1 sequence

[3] = target: T3, WHRN-Nluc L-Z3 (mouse) (UniProt Q80VW5); assay: as above
T3 sequence: T1 sequence

[4] = target: T4, WHRN-Nluc L-Z1 (mouse) (UniProt Q80VW5); assay: as above
T4 sequence: T1 sequence

[5] = target: T5, WHRN, endogenous in mouse cochlea (mouse (endogenous in cochlea)) (UniProt Q80VW5); assay: co-IP; endogenous proteins in lysates of cochlea from WT or Y6236fsX1 mutant mice; precipitated with WHRN antibody, IgG as control, WDSUB1 blotted; ≈2.5-fold more WDSUB1 with WHRN in Y6236fsX1 than in WT lysate
T5 sequence: T1 sequence

[6] = target: T6, WHRN-PDZ1 domain, purified (mouse) (UniProt Q80VW5); assay: NMR titration; 15N-labelled PDZ1 or PDZ2 titrated with peptide (PDZ1/USH2Ap up to 1:4, PDZ2/ADGRV1p up to 1:5); 1H-15N HSQC, 293 K; 25 mM NaH2PO4, 100 mM NaCl, 2 mM EDTA, pH 6.8; both purified
T6 sequence: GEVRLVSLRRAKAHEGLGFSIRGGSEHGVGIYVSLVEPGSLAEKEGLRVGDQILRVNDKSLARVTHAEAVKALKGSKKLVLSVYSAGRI

[7] = target: T1, WHRN, wild type, of the PDZ-truncation co-IP (Figure 6b,c) (mouse); assay: co-IP; cotransfected HEK293 cells, starved 12 h, lysed in 50 mM Tris-HCl pH 7.4, 150 mM NaCl, 1% Triton, 1% NP-40, 2 mM EDTA; anti-Flag M2 or anti-Myc antibody-conjugated agarose, 4 °C overnight; blots against the tags; remark: listed apart in the source
[8] = target: T7, Flag-WHRN S156E (phospho-mimic mutant) (mouse) (UniProt Q80VW5); assay: as above
T7 sequence: T1 sequence with S156E

[9] = target: T8, Flag-WHRN S246E (phospho-mimic mutant) (mouse) (UniProt Q80VW5); assay: as above
T8 sequence: T1 sequence with S246E

[10] = target: T9, Flag-WHRN (wild type) (mouse) (UniProt Q80VW5); assay: as above
T9 sequence: T1 sequence

For “ADGRV1 of the PDZ-truncation co-IP (Figure 6b,c) (from UniProt Q8VHN7 4333-6298) (receptor)”, the binding [1] was “binds”.

For “ADGRV1-ICL2-FlAsH (from UniProt Q8VHN7 4333-6298) (receptor)”, the binding [2] was “binds”, the binding [3] was “binds” and the binding [4] was “binds”.

B1: WDSUB1, endogenous in mouse cochlea (enzyme, UniProt Q9D0I6 1-474)
chain: MVRLIHTLADHGDDVSCCAFSAALLATCSLDKTIRLYSLSDFAELPYSPLKFHTYAVHCCCFSPSGHVLASCSTDGTTVLWSSHSGHTLTVLEQPGGSPVRVCCFSPDSAYLASGAADGSIALWNAQTYKLYRCGSVKDSSLVACAFSPDGGLFVTGSSGGDLTVWDDRMRCLHSEKAHDLGITCCSFSSQPLSGGEGLQSYQLASCGQDCEIKLWAVTITRVLGFELKYKSTLSGHCAPVLACAFSHDGKMLASGSVDKSVIIHGIGPQSVLHTLTQHTRYVTTCAFAPNTLLLATGSMDKTVNIWQFDLETPCQGSMNDPLKHFTEEWSEEDVSVWLRAQGLEDLVGIFRANNIDGKELLHLTKESLAGDLKIESLGLRSKVLRSIEELRAKMDSLSSGIPDEFICPITRELMKDPVIASDGYSYEREAMESWIHKKKRTSPMTNLALPSLVLTPNRTLKMAINRWLETHEK
In the case of B1, the binding [5] is reported as “binds”.

B2: USH2Ap, 10-residue C-terminal tail peptide of USH2A harboring the PDZ-binding motif (peptide, UniProt Q2QI47 5184-5193, looked up)
peptide: EHTAFTDTHL
notes: also called USH2A C-terminal peptide; source: synthetic peptide
With B2 the binding [6] was “binds”.

B3: USH2A of the PDZ-truncation co-IP (Figure 6b,c) (domain or fragment, UniProt Q2QI47 4819-5193)
chain: PPSGLSPPQVQTLGSRMASVHWTPPLLPNGVIHSYELQLQRACPPDSAPRCPPSHTERKYWGPGHRASLAGLQPNTAYGVQVVAYNEAGSTASGWTNFSTKKEMPQYQALFSVDSNASMVWVDWSGTFLLNGHLKEYVVTDGGRRVYSGLDTTLYIPRMVDKIFFFQVTCTTDIGSVKTPLVQYDAATGSGLVLTTPGEKKGAGTKSTEFYSELWFIMVMAVVGLILLAIFLSLILQRKIHKEPCIRERPPLVPLQKRMTPLSVYPPGETHVGLADTRLPRSGTPMSIRSSQSVSVLRIPSQSQLSHAYSQSSLHRSVSQLMDMADKKVVTEDSLWETIMGHSSGLYVDEEELMNAIKGFSSVTKEHTAFTDTHL
In the case of B3, the binding [7] is reported as “binds”.

B4: Myc-USH2A (usherin, aa 4819-5193) (domain or fragment, UniProt Q2QI47 4819-5193)
chain: B3 chain
In the case of B4, the binding [8] is reported as “binds”, the binding [9] is reported as “binds” and the binding [10] is reported as “binds”.

B5: GFP-WDSUB1 (WD repeat, SAM, and U-box domain-containing protein 1) (enzyme, UniProt Q9D0I6 1-474)
chain: B1 chain
For B5, the binding [8] was “binds”, the binding [9] was “binds” and the binding [10] was “binds”.
